No constants are given. Whether binding was seen depends on the method and setting. Binding seen in cells or lysates may run through a third protein. Some entries that bind do so weakly or less than the wild type.
Assays:
[1] = target: SNAP29 (untagged, purified) (UniProt O95721); experiment: co-IP; only the target purified
[2] = target: GST-STX17 (amino acids 1-224) (UniProt P56962); experiment: pull-down; only the target purified

Amino acid sequences for entries named in this document (tags omitted). A change or cut given only in a name is not applied to a line headed by its entry. Residues count along the entry.
UniProt O95721: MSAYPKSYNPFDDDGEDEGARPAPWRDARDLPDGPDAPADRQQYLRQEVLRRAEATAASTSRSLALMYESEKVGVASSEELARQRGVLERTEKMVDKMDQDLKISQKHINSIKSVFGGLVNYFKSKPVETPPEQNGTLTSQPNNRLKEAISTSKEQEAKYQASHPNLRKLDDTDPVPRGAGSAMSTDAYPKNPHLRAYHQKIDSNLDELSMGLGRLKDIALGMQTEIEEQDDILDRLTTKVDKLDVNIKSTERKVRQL
UniProt P56962: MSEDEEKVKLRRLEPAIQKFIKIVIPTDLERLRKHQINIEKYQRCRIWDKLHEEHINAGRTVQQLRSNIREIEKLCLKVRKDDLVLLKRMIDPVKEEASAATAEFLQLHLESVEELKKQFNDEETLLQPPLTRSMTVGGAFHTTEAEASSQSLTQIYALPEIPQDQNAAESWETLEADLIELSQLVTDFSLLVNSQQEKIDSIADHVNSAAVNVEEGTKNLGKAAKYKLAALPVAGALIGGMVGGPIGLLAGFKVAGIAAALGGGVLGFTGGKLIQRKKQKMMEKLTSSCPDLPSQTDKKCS
GST-STX17 (amino acids 1-224): residues 1-224 of P56962
UniProt Q6ZNE5: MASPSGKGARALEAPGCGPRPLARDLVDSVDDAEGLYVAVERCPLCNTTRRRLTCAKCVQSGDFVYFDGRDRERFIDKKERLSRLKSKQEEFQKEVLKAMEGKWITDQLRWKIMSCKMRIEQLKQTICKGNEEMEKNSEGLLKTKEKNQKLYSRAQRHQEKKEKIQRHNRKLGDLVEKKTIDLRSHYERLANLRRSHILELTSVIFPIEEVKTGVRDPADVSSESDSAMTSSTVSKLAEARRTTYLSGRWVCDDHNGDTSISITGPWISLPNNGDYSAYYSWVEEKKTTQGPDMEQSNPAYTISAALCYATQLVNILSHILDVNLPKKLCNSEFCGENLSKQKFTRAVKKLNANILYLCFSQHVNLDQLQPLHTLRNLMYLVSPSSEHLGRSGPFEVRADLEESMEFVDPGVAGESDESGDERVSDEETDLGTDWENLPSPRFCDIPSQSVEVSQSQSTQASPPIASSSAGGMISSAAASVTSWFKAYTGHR
UniProt Q14457: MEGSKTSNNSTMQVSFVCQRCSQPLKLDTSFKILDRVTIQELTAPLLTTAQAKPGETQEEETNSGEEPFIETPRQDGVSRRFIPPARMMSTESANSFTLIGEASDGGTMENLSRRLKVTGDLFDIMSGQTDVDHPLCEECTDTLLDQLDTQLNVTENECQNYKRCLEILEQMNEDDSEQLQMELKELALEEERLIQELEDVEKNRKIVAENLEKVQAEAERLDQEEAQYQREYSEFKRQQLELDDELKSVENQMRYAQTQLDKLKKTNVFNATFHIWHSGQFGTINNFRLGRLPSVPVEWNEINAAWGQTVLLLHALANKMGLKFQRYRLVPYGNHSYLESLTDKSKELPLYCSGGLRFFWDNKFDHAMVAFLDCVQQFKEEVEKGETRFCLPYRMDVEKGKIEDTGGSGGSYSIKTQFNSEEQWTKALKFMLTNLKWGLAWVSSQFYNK
UniProt Q8TDY2: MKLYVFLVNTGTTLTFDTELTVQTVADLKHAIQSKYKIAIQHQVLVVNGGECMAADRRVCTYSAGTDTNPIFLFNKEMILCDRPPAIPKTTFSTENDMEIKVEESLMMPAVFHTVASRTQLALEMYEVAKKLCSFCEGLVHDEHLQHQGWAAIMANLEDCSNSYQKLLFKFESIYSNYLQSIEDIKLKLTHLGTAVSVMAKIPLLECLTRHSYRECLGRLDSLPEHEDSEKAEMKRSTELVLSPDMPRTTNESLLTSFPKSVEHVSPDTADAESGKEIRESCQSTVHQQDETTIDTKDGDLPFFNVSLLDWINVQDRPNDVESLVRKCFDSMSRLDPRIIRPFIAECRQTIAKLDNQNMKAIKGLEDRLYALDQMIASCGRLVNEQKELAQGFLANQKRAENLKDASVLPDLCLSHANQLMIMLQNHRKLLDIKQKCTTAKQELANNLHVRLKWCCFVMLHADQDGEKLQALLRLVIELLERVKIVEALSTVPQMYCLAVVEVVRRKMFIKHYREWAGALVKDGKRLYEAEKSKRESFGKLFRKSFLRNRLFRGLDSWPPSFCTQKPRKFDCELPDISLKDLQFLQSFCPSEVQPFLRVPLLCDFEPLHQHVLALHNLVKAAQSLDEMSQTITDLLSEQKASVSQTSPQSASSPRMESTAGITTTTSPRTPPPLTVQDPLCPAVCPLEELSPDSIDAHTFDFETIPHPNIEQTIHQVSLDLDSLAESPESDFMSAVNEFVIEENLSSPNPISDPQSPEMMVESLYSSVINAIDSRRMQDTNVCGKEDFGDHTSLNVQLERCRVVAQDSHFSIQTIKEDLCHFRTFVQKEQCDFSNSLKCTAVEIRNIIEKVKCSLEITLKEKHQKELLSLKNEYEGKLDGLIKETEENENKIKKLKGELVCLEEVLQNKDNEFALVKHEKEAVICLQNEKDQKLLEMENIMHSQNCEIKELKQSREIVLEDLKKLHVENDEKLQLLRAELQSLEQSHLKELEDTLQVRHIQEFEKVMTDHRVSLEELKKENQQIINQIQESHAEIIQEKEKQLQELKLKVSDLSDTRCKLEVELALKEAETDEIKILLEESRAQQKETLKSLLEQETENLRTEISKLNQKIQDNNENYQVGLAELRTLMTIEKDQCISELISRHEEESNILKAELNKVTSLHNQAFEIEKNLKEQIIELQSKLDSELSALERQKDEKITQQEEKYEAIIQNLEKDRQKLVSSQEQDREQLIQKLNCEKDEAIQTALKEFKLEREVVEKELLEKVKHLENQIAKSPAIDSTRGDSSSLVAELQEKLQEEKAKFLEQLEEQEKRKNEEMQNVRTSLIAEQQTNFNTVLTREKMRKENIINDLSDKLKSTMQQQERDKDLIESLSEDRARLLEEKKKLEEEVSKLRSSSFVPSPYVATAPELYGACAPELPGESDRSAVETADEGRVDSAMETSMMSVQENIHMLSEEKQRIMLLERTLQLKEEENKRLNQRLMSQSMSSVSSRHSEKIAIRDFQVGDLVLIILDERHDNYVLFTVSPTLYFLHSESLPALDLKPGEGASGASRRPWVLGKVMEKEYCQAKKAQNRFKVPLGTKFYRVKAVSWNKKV

ATG14L (endogenous) (from UniProt Q6ZNE5 1-492)
binding [1]: binds

Beclin1 (from UniProt Q14457 1-450)
binding [2]: no binding

FIP200 (from UniProt Q8TDY2 1-1594)
binding [2]: no binding

STX17 (endogenous) (from UniProt P56962 1-302)
binding [1]: binds

Reference: paper PMC12317070
